# Reference: the supplement of paper PMC8728848
# Some of the results follow.
# Tests used:
# Assay in all cases: glycan array binding signal (z-score within array); higher = stronger binding
# Details in all cases: glycan notation: IUPAC condensed, linker removed
# [1] = target: Gal(b1-4)GlcNAc(a1-6)Gal(b1-4)GlcNAc
# Method in brief: (§1)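 From the Consortium for Functional Glycomics database, 3228 arrays were curated, keeping only those whose protein sequence was available. Binding is given as a within-array Z-score averaged across arrays sharing a protein sequence and across linkers. Negative Z-scores can be read as non-binding.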
# [2] = target: Gal(b1-4)GlcNAc(b1-2)Man(a1-3)Man(b1-4)GlcNAc(b1-4)GlcNAc
# Method in brief: as §1
# [3] = target: Gal(b1-4)GlcNAc(b1-2)Man(a1-3)[Gal(b1-4)GlcNAc(b1-2)Man(a1-6)]Man(b1-4)GlcNAc(b1-4)GlcNAc
# Method in brief: as §1
# [4] = target: Gal(b1-4)GlcNAc(b1-2)Man(a1-3)[Gal(b1-4)GlcNAc(b1-2)Man(a1-6)]Man(b1-4)GlcNAc(b1-4)[Fuc(a1-6)]GlcNAc
# Method in brief: as §1
# [5] = target: Gal(b1-4)GlcNAc(b1-2)Man(a1-3)[GlcNAc(b1-2)Man(a1-6)]Man(b1-4)GlcNAc(b1-4)GlcNAc
# Method in brief: as §1
# [6] = target: Gal(b1-4)GlcNAc(b1-2)Man(a1-3)[Man(a1-6)]Man(b1-4)GlcNAc(b1-4)GlcNAc
# Method in brief: as §1
# [7] = target: Gal(b1-4)GlcNAc(b1-2)Man(a1-6)Man(b1-4)GlcNAc(b1-4)GlcNAc
# Method in brief: as §1
# [8] = target: Gal(b1-4)GlcNAc(b1-2)Man(a1-6)[GlcNAc(b1-2)Man(a1-3)]Man(b1-4)GlcNAc(b1-4)GlcNAc
# Method in brief: as §1
# [9] = target: Gal(b1-4)GlcNAc(b1-2)Man(a1-6)[Man(a1-3)]Man(b1-4)GlcNAc(b1-4)GlcNAc
# Method in brief: as §1
# [10] = target: Gal(b1-4)GlcNAc(b1-2)[Gal(b1-4)GlcNAc(b1-4)]Man(a1-3)[Gal(b1-4)GlcNAc(b1-2)Man(a1-6)]Man(b1-4)GlcNAc(b1-4)GlcNAc
# Method in brief: as §1
# [11] = target: Gal(b1-4)GlcNAc(b1-2)[Gal(b1-4)GlcNAc(b1-4)]Man(a1-3)[Gal(b1-4)GlcNAc(b1-2)[Gal(b1-4)GlcNAc(b1-6)]Man(a1-6)]Man(b1-4)GlcNAc(b1-4)GlcNAc
# Method in brief: as §1
# [12] = target: Gal(b1-4)GlcNAc(b1-3)Gal(b1-3)GlcNAc
# Method in brief: as §1
# [13] = target: Gal(b1-4)GlcNAc(b1-3)Gal(b1-4)Glc
# Method in brief: as §1
# [14] = target: Gal(b1-4)GlcNAc(b1-3)Gal(b1-4)GlcNAc
# Method in brief: as §1
# [15] = target: Gal(b1-4)GlcNAc(b1-3)Gal(b1-4)GlcNAc(b1-3)Gal(b1-4)GlcNAc
# Method in brief: as §1
# [16] = target: Gal(b1-4)GlcNAc(b1-3)Gal(b1-4)[Fuc(a1-3)]GlcNAc(b1-3)Gal(b1-4)[Fuc(a1-3)]GlcNAc
# Method in brief: as §1
# [17] = target: Gal(b1-4)GlcNAc(b1-3)GalNAc
# Method in brief: as §1
# [18] = target: Gal(b1-4)GlcNAc(b1-3)[Gal(b1-4)GlcNAc(b1-6)]Gal(b1-4)GlcNAc
# Method in brief: as §1
# [19] = target: Gal(b1-4)GlcNAc(b1-3)[Gal(b1-4)GlcNAc(b1-6)]GalNAc
# Method in brief: as §1
# [20] = target: Gal(b1-4)GlcNAc(b1-3)[GlcNAc(b1-6)]Gal(b1-4)GlcNAc
# Method in brief: as §1
# [21] = target: Gal(b1-4)GlcNAc(b1-6)Gal(b1-4)GlcNAc
# Method in brief: as §1
# [22] = target: Gal(b1-4)GlcNAc(b1-6)GalNAc
# Method in brief: as §1
# [23] = target: Gal(b1-4)GlcNAc(b1-6)[Gal(b1-3)]GalNAc
# Method in brief: as §1
# [24] = target: Gal3S(b1-3)GalNAc
# Method in brief: as §1
# [25] = target: Gal3S(b1-3)GlcNAc
# Method in brief: as §1
# [26] = target: Gal3S(b1-3)[Fuc(a1-4)]GlcNAc
# Method in brief: as §1
# [27] = target: Gal3S(b1-4)Glc
# Method in brief: as §1
# [28] = target: Gal3S(b1-4)Glc6S
# Method in brief: as §1
# [29] = target: Gal3S(b1-4)GlcNAc
# Method in brief: as §1
# [30] = target: Gal3S(b1-4)GlcNAc6S
# Method in brief: as §1
# [31] = target: Gal3S(b1-4)[Fuc(a1-3)]Glc
# Method in brief: as §1
# [32] = target: Gal3S(b1-4)[Fuc(a1-3)]Glc6S
# Method in brief: as §1
# [33] = target: Gal3S4S(b1-4)GlcNAc
# Method in brief: as §1
# [34] = target: Gal3S6S(b1-4)GlcNAc
# Method in brief: as §1
# [35] = target: Gal3S6S(b1-4)GlcNAc6S
# Method in brief: as §1
# [36] = target: Gal4S(b1-4)GlcNAc
# Method in brief: as §1
# [37] = target: Gal4S6S(b1-4)GlcNAc
# Method in brief: as §1
# [38] = target: Gal6S(b1-4)Glc
# Method in brief: as §1
# [39] = target: Gal6S(b1-4)Glc6S
# Method in brief: as §1
# [40] = target: Gal6S(b1-4)GlcNAc
# Method in brief: as §1
# [41] = target: Gal6S(b1-4)GlcNAc6S
# Method in brief: as §1
# [42] = target: GalNAc(a1-3)Gal
# Method in brief: as §1
# [43] = target: GalNAc(a1-3)GalNAc
# Method in brief: as §1
# [44] = target: GalNAc(a1-3)GalNAc(a1-3)Gal(a1-4)Gal(b1-4)GlcNAc
# Method in brief: as §1
# [45] = target: GalNAc(b1-3)Gal
# Method in brief: as §1
binder,measurement,setting,value
"CLEC9a (Mus musculus), Q8BRU4 (protein) MHAEEIYTSLQWDIPTSEASQKCQSPSKCSGAWCVVTMISCVVCMGLLATSIFLGIKFFQVSSLVLEQQERLIQQDTALVNLTQWQRKYTLEYCQALLQRSLHSGSDCSPCPHNWIQNGKSCYYVFERWEMWNISKKSCLKEGASLFQIDSKEEMEFISSIGKLKGGNKYWVGVFQDGISGSWFWEDGSSPLSDLLPAERQRSAGQICGYLKDSTLISDKCDSWKYFICEKKAFGSCI",glycan array binding signal (z-score),[1],0.811
same,glycan array binding signal (z-score),[2],0.687
same,glycan array binding signal (z-score),[3],-0.676
same,glycan array binding signal (z-score),[4],0.33
same,glycan array binding signal (z-score),[5],-0.435
same,glycan array binding signal (z-score),[6],-0.314
same,glycan array binding signal (z-score),[7],0.272
same,glycan array binding signal (z-score),[8],0.477
same,glycan array binding signal (z-score),[9],-1.19
same,glycan array binding signal (z-score),[10],-0.001
same,glycan array binding signal (z-score),[11],1.54
same,glycan array binding signal (z-score),[12],0.389
same,glycan array binding signal (z-score),[13],-0.295
same,glycan array binding signal (z-score),[14],0.404
same,glycan array binding signal (z-score),[15],0.231
same,glycan array binding signal (z-score),[16],1.93
same,glycan array binding signal (z-score),[17],0.253
same,glycan array binding signal (z-score),[18],0.779
same,glycan array binding signal (z-score),[19],1.87
same,glycan array binding signal (z-score),[20],-0.296
same,glycan array binding signal (z-score),[21],-0.302
same,glycan array binding signal (z-score),[22],-0.352
same,glycan array binding signal (z-score),[23],-0.235
same,glycan array binding signal (z-score),[24],0.21
same,glycan array binding signal (z-score),[25],-0.876
same,glycan array binding signal (z-score),[26],1.28
same,glycan array binding signal (z-score),[27],0.279
same,glycan array binding signal (z-score),[28],-0.258
same,glycan array binding signal (z-score),[29],-0.177
same,glycan array binding signal (z-score),[30],0.269
same,glycan array binding signal (z-score),[31],0.198
same,glycan array binding signal (z-score),[32],0.399
same,glycan array binding signal (z-score),[33],-0.895
same,glycan array binding signal (z-score),[34],-0.733
same,glycan array binding signal (z-score),[35],-1.05
same,glycan array binding signal (z-score),[36],1.88
same,glycan array binding signal (z-score),[37],-1.4
same,glycan array binding signal (z-score),[38],0.159
same,glycan array binding signal (z-score),[39],-1.02
same,glycan array binding signal (z-score),[40],0.237
same,glycan array binding signal (z-score),[41],-0.445
same,glycan array binding signal (z-score),[42],-0.778
same,glycan array binding signal (z-score),[43],0.006
same,glycan array binding signal (z-score),[44],-1.51
same,glycan array binding signal (z-score),[45],0.273

# Already shown: entries from further up.
binder,measurement,setting,value
"CLEC9a (Mus musculus), Q8BRU4 (protein) MHAEEIYTSLQWDIPTSEASQKCQSPSKCSGAWCVVTMISCVVCMGLLATSIFLGIKFFQVSSLVLEQQERLIQQDTALVNLTQWQRKYTLEYCQALLQRSLHSGSDCSPCPHNWIQNGKSCYYVFERWEMWNISKKSCLKEGASLFQIDSKEEMEFISSIGKLKGGNKYWVGVFQDGISGSWFWEDGSSPLSDLLPAERQRSAGQICGYLKDSTLISDKCDSWKYFICEKKAFGSCI",glycan array binding signal (z-score),[33],-0.895
same,glycan array binding signal (z-score),[34],-0.733
same,glycan array binding signal (z-score),[35],-1.05
